Source: US20220119492A1
Results are given in words; binding and its absence hold for the method and conditions named. Some results given as binding are weak or reduced against the parent protein; the word gives no strength. Tags and fused reporters may be left off the sequences shown.

Key:
[1] = biological target: T1, human IL-2Rβ (CD122 protein, Fc Tag) (27-239) (human) (UniProt P14784); assay: competition ELISA; competitor: phage clone SEQ ID NO 58
T1 sequence (looked up): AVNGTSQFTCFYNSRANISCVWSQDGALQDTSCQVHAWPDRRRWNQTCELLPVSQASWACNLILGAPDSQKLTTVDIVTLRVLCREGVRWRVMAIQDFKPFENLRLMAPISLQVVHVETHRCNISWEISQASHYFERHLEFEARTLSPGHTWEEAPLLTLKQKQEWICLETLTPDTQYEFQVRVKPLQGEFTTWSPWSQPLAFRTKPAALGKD

[2] = biological target: T1, human IL-2Rβ (CD122 protein, Fc Tag) (27-239) (human); assay: competition ELISA; competitor: phage clone SEQ ID NO 83
[3] = biological target: T1, human IL-2Rβ (CD122 protein, Fc Tag) (27-239) (human); assay: competition ELISA; competitor: phage clone SEQ ID NO 170
[4] = biological target: T1, human IL-2Rβ (CD122 protein, Fc Tag) (27-239) (human); assay: competition ELISA; competitor: phage clone SEQ ID NO 1034

binding [1]: binds | binding [2]: binds | binding [3]: binds | binding [4]: binds
Binder: NMCLVGDYWPSCQI [IL-2Rβ ligand SEQ ID NO: 169]
